Measured values published in doi:10.1101/2025.05.02.651988.

How the values were obtained:
Assay in all cases: cryo-EM structure
[1] = molecular target: E. coli RNA polymerase β subunit (E. coli) (UniProt P0A8V2)
[2] = molecular target: E. coli RNA polymerase α subunit (E. coli) (UniProt P0A7Z4)
[3] = molecular target: E. coli RNA polymerase σ70 subunit (E. coli) (UniProt P00579)

Measured: binding

phage Mu late gene transcription activator C (from UniProt P06022)
binds: all assays above

These are yes or no findings as the source states them, for the method shown. A result given as binding can be weak or reduced; the word gives no strength.
